Measured values published in article PMC4770770.
Results are given in words; binding and its absence hold for the method and conditions named. Binding seen in cells or lysates may run through a third protein.

Molecular target: p53 (human (endogenous in HCT116)) (UniProt P04637)
Assay: co-IP; 300 ug whole cell lysate (RIPA) of HCT116 cells, untreated or 24 h after 10 Gy, incubated with 0.5 ug monoclonal p53 antibody; immunoblot for ERp57 and MDM2; control IP with mouse IgG2a isotype control

For “thiol oxidoreductase ERp57 (from UniProt P30101 25-505)”, which binding is on record?
Its binding is “no binding”.
